Melting temperature shift data for one compound are collected here from the supplement of paper PMC12595434, “Development of retinoid nuclear receptor pathway antagonists through targeting aldehyde dehydrogenase 1A3” (iScience, 2025).

This experiment has as its target UniProt P50993. Kind of experiment: melting temperature shift (DMSO Tm minus MBE1-treated Tm) in cellular thermal proteome profiling; higher = less thermal stabilization by MBE1 (negative = stabilized by MBE1). The note with it: A375.

SMILES strings stand for the structures. Some of the results follow. This is a noisy data set.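 Tm was set to 64 °C where no melting was found, and many curves are irregular.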

In the case of `CCc1cnccc1C(=O)Nc1cc2c(cc1F)NC(=O)CC2`, the melting temperature shift by setting is: (MBE1 concentration: 100 nM) -1.63 °C; (MBE1 concentration: 1 uM) -0.69 °C.
